Measured data: PubChem BioAssay AID1259405 (NCATS, 2018)
Assay: 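Mouse-designed siRNAs used to find CHO productivity engineering targets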 (primary screen). Cells: Chinese hamster CHO-K1 ovary cells with stable secreted eGFP expression. Knock-down reagent: single siRNA against mouse genes, 0.8 pmol siRNA per well (2 µl of 400 nM stock). Time to read-out: 3 days. Measured: 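Percent of the per-plate non-targeting control median for intracellular GFP per well by laser scanning cytometry and for cell viability by ATP luminescence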. Reading the numbers: GFP, % of control: higher = more GFP per well, higher productivity; viability (ATP), % of control: higher = more viable cells (more ATP). Rule for the call: 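a knock-down is called active if GFP reaches 120% or more of non-targeting control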.
The whole screen tested about 50,000 reagents; below is an unselected part. About 4,000 of all reagents (8%) were called active. 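Mouse siRNA library applied to hamster cells; one well for each siRNA.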 Entries without a mark were called inactive. The numbers tell different reagents against one gene apart. No sequences are given here.

With Eef2 #1, how do the results read?
GFP, % of control: 82.6; viability (ATP), % of control: 66.6

With Eef2 #2, how do the results read?
GFP, % of control: 71.7; viability (ATP), % of control: 67.8

What is on record for Eef2 #3?
GFP, % of control: 76.9; viability (ATP), % of control: 67.4

What is on record for Tsc2 #1?
GFP, % of control: 115; viability (ATP), % of control: 142

How did the screen score Tsc2 #2?
GFP, % of control: 118; viability (ATP), % of control: 91.8

What is on record for Tsc2 #3?
GFP, % of control: 56.5; viability (ATP), % of control: 83.3

Laid out differently: entries from further up
| gene | reagent | GFP, % of control | viability (ATP), % of control |
| --- | --- | --- | --- |
| Tsc2 | 1 | 115 | 142 |
| Tsc2 | 2 | 118 | 91.8 |

The list goes on:
With Mapk12, how do the results read?
GFP, % of control: 79.3; viability (ATP), % of control: 49.6

How did the screen score Chodl #1?
GFP, % of control: 89.7; viability (ATP), % of control: 77

What did the screen give for Chodl #2?
GFP, % of control: 57.6; viability (ATP), % of control: 64.2

How did the screen score Chodl #3?
GFP, % of control: 81.8; viability (ATP), % of control: 80.8

For Calml3 #1, how do the results read?
GFP, % of control: 84.1; viability (ATP), % of control: 101

How did the screen score Calml3 #2?
GFP, % of control: 65.8; viability (ATP), % of control: 72.9

For Ifnar1 #1, what does the deposit list?
GFP, % of control: 70.4; viability (ATP), % of control: 101

What is on record for Ifnar1 #2?
GFP, % of control: 76.9; viability (ATP), % of control: 78.4

What is on record for Ifnar1 #3?
GFP, % of control: 60.8; viability (ATP), % of control: 73.1

With Prkd1, what does the deposit list?
GFP, % of control: 65.9; viability (ATP), % of control: 72.1
